Where cells or extracts were used, other partners may take part. For some assays here: For at least one entry, the source does not settle the construct or the ends of the probe.
Assays:
KLF4 (Homo sapiens) = KLF4 (Homo sapiens) (UniProt O43474); assay: binding assay; settings: ChIP and Re-ChIP after anti-MUC1-C; KLF4 occupancy decreased upon MUC1 silencing; protein in cells; protein details: endogenous, MCF-7 and ZR-75-1 cells
[1] = tested on: MUC1-C (MUC1 C-terminal subunit) (Homo sapiens); assay: binding assay; settings: ChIP; occupancy likely indirect via KLF4; protein in cells

Chains of the proteins cited; added tags and fusions are not shown. Chains listed by the source or under a name are the forms on record and can include a tag or linker. Residues count along the entry.
UniProt O43474, 10-513: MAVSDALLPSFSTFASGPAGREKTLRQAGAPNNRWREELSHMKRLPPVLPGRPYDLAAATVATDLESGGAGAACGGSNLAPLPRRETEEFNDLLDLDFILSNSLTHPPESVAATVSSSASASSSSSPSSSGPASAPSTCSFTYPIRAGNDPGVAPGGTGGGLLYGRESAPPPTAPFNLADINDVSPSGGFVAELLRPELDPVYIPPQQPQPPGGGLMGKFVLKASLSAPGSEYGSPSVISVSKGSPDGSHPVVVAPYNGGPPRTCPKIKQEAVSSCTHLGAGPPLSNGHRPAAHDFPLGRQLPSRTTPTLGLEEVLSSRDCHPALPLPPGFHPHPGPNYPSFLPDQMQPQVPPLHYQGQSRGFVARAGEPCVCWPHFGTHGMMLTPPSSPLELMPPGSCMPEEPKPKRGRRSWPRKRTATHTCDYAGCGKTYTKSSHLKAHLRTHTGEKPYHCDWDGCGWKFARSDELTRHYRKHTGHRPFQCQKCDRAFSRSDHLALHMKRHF
MUC1-C (MUC1 C-terminal subunit) (Homo sapiens), one chain, as listed by the source: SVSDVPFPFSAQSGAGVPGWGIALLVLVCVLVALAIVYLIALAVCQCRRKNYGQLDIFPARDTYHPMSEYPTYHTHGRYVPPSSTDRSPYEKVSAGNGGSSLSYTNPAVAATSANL

“GCCCTTACTTGTCATGGCGACTGTCCAGCTTTGTGCCAGGAGCCTCGCAGGGGTTGATGGGATTG (double strand) [p53 promoter PE21 region (-118 to -54)]”: binds (KLF4 (Homo sapiens)); binds [1].

From patent publication US20090098054
